Where “and” joins values, the source holds several entries; their conditions need not be identical. Equal entries are not always repeated. Structures can show the parent of a compound that is named as a salt. ± gives the standard deviation of the averaged measurements. This is one part of the list. The data scatter; read single values as rough.
test system: Salmonella enterica serovar Typhimurium ST313 D23580; assay: normalized bacterial growth (OD600 20 h minus 0 h, interquartile-mean normalized) (fraction of plate interquartile mean); higher = more bacterial growth (less inhibition); conditions: LPM (pH 5.8, low phosphate, low Mg2+), concentration: 10 µM, temperature: 37 °C

Question: How did the normalized bacterial growth turn out when `COc1ccc(/C=C/c2cc(OC)cc(=O)o2)cc1` was run?
Answer: The normalized bacterial growth was 0.985.

Question: Which normalized bacterial growth does the source give for `Cc1nc(C)c(Cl)c(O)c1Cl` here?
Answer: Its normalized bacterial growth is 1.12.

Question: For `CC1(C)C2CC(=O)O[C@@]3(C)C4=CC(=O)O[C@@H](c5ccoc5)[C@]4(C)CCC3[C@@]2(C)C=C[C@H]1O` (stereo partly drawn), which normalized bacterial growth is on record?
Answer: Its normalized bacterial growth is 0.888.

Question: Which normalized bacterial growth does the source give for `CCCCCCCCCCCCCCCC[N+](C)(C)CCN(Cc1ccc(OC)cc1)c1ncccn1` [Thonzonium bromide] here?
Answer: Its normalized bacterial growth is 0.134.

Question: Which normalized bacterial growth does the source give for `O=C(O)P(=O)(O)O` here?
Answer: The normalized bacterial growth was 1.21.

Question: For `CC(=O)O[C@@H]1C[C@@]2(C)C(CC[C@@H]2C(C)=O)C2CCC3=CC(=O)CC[C@]3(C)C21` (stereo partly drawn), which normalized bacterial growth is on record?
Answer: The normalized bacterial growth was 1.05.

Question: How did the normalized bacterial growth turn out when `CNc1cc(NS(=O)(=O)c2ccc(N)cc2)nc(NC)n1` [Ro 04-6790 dihydrochloride] was run?
Answer: The normalized bacterial growth was 1.05.

Question: With `CO[C@H]1C[C@@H]2CC[C@@H](C)[C@@](O)(O2)C(=O)C(=O)N2CCCC[C@H]2C(=O)O[C@H]([C@H](C)C[C@@H]2CC[C@@H](O)[C@H](OC)C2)CC(=O)[C@H](C)/C=C(\C)[C@@H](O)[C@@H](OC)C(=O)[C@H](C)C[C@H](C)/C=C/C=C/C=C/1C` as the compound, how does the normalized bacterial growth read?
Answer: Its normalized bacterial growth is 1.08 and 1.35.

Question: Which normalized bacterial growth does the source give for `COC(=O)C[C@H]1C(C)(C)[C@@H](OC(C)=O)[C@@H]2CC3=C4CC(=O)O[C@@H](c5ccoc5)[C@]4(C)CC[C@@H]3[C@@]1(C)C2=O` here?
Answer: Its normalized bacterial growth is 1.05.

Question: How did the normalized bacterial growth turn out when `[Cl-].[Li+]` [Lithium Chloride] was run?
Answer: The normalized bacterial growth was 1.01.

Question: For `CCN(CC)CCNC(=O)c1ccc(NC(C)=O)cc1` [N-Acetylprocainamide hydrochloride], which normalized bacterial growth is on record?
Answer: The normalized bacterial growth was 0.995.

Question: How did the normalized bacterial growth turn out when `CCCCCCN(CCCCCC)C(=O)Cc1c(-c2ccc(F)cc2)[nH]c2ccccc12` ["N,N-Dihexyl-2-(4-fluorophenyl)indole-3-acetamide"] was run?
Answer: Its normalized bacterial growth is 0.996.

Question: Which normalized bacterial growth does the source give for `CC(=O)NNC(=O)N1Cc2ccccc2Oc2ccc(Cl)cc21` here?
Answer: The normalized bacterial growth was 0.973.

Question: With `CNC[C@H](O)c1cccc(O)c1` [Phenylephrine hydrochloride] as the compound, how does the normalized bacterial growth read?
Answer: The normalized bacterial growth was 1.13.

Question: For `CC(C)(CO)[C@@H](O)C(=O)NCCCO`, which normalized bacterial growth is on record?
Answer: Its normalized bacterial growth is 1.14.

Question: `CC(C(=O)O)[C@H]1CCC2C3CC=C4C[C@@H](O)CC[C@]4(C)C3CC[C@@]21C` (stereo partly drawn) ["3beta-HYDROXY-23,24-BISNORCHOL-5-ENIC ACID"] was tested. Which normalized bacterial growth did it give?
Answer: Its normalized bacterial growth is 1.14.

Question: With `COc1cc2c(cc1OC)-c1cc3ccc(OC)c(OC)c3c[n+]1CC2` as the compound, how does the normalized bacterial growth read?
Answer: The normalized bacterial growth was 0.956 and 0.942.

Question: With `COC(=O)[C@H]1[C@H]2C[C@@H]3c4[nH]c5cc(OC)ccc5c4CCN3C[C@H]2C[C@@H](OC(=O)c2cc(OC)c(OC)c(OC)c2)[C@@H]1OC` as the compound, how does the normalized bacterial growth read?
Answer: The normalized bacterial growth was 0.728.

Question: `CC(=O)C12OC(C)(c3ccccc3)OC1CC1C3CCC4=CC(=O)CCC4(C)C3CCC12C` (stereo not drawn) was tested. Which normalized bacterial growth did it give?
Answer: Its normalized bacterial growth is 0.788.

Question: Which normalized bacterial growth does the source give for `CC(C)C[C@H](NC(=O)[C@@H](O)[C@H](N)Cc1ccccc1)C(=O)O` [Bestatin hydrochloride] here?
Answer: Its normalized bacterial growth is 1.21.

Question: Which normalized bacterial growth does the source give for `CNC(=C[N+](=O)[O-])NCCSCc1ccc(CN(C)C)o1` [Ranitidine hydrochloride] here?
Answer: Its normalized bacterial growth is 0.767 ± 0.062.

Question: With `CNC(=C[N+](=O)[O-])NCCSCc1ccc(CN(C)C)o1` as the compound, how does the normalized bacterial growth read?
Answer: The normalized bacterial growth was 0.523.

Question: With `C=CCc1ccc(O)c(-c2ccc(O)c(CC=C)c2)c1` as the compound, how does the normalized bacterial growth read?
Answer: Its normalized bacterial growth is 1.17.

Question: For `O=C(O)CN(CCOCCOCCN(CC(=O)O)CC(=O)O)CC(=O)O`, which normalized bacterial growth is on record?
Answer: The normalized bacterial growth was 1.

Question: For `O=c1c(-c2ccc(O)cc2)coc2cc(O)cc(O)c12`, which normalized bacterial growth is on record?
Answer: The normalized bacterial growth was 1.19.

Question: With `O=c1c(-c2ccc(O)cc2)coc2cc(O)cc(O)c12` [Genistein] as the compound, how does the normalized bacterial growth read?
Answer: Its normalized bacterial growth is 1.15.

Question: For `O=C1C=C2CC3(O)COc4cc(O)ccc4C3=C2C=C1O` (stereo not drawn), which normalized bacterial growth is on record?
Answer: Its normalized bacterial growth is 0.879.

Question: `N[C@H](Cc1ccccc1)C(=O)O` was tested. Which normalized bacterial growth did it give?
Answer: Its normalized bacterial growth is 1.24.

Question: Which normalized bacterial growth does the source give for `O=C1C=CC(=C(c2ccc(O)cc2)c2ccc(O)cc2)C=C1` here?
Answer: The normalized bacterial growth was 1.14.

Question: Which normalized bacterial growth does the source give for `CCCc1nc(C)c2c(O)nc(-c3cc(S(=O)(=O)N4CCN(CC)CC4)ccc3OCC)nn12` here?
Answer: Its normalized bacterial growth is 0.659.

Question: Which normalized bacterial growth does the source give for `CC(=O)Nc1ccc(S(=O)(=O)Nc2ccc([N+](=O)[O-])cc2)cc1` here?
Answer: The normalized bacterial growth was 0.916.

Question: How did the normalized bacterial growth turn out when `Cc1ccc(C(=O)Nc2ccc(S(=O)(=O)O)c3cc(S(=O)(=O)O)cc(S(=O)(=O)O)c23)cc1NC(=O)c1cccc(NC(=O)Nc2cccc(C(=O)Nc3cc(C(=O)Nc4ccc(S(=O)(=O)O)c5cc(S(=O)(=O)O)cc(S(=O)(=O)O)c45)ccc3C)c2)c1` [Suramin sodium salt] was run?
Answer: The normalized bacterial growth was 0.962.

Question: For `CCc1cc(C(N)=S)ccn1`, which normalized bacterial growth is on record?
Answer: The normalized bacterial growth was 0.555.

Question: With `CC(=O)Nc1c(I)c(NC(C)=O)c(I)c(C(=O)O)c1I` as the compound, how does the normalized bacterial growth read?
Answer: The normalized bacterial growth was 0.979.

Question: Which normalized bacterial growth does the source give for `Cn1cc(C2=C(c3ccc(Cl)cc3Cl)C(=O)NC2=O)c2ccccc21` here?
Answer: Its normalized bacterial growth is 0.967.

Question: Which normalized bacterial growth does the source give for `CN1CCN(C(c2ccccc2)c2ccc(Cl)cc2)CC1` (stereo not drawn) here?
Answer: The normalized bacterial growth was 0.882.

Question: For `Cc1ccc(C(C)C)cc2c(C)ccc1-2`, which normalized bacterial growth is on record?
Answer: The normalized bacterial growth was 0.722.

Question: With `Nc1ncnc2c1ncn2[C@@H]1O[C@H](COP(=O)(O)CP(=O)(O)OP(=O)(O)O)[C@H](O)C1O` (stereo partly drawn) ["alpha,beta-Methylene adenosine 5'-triphosphate dilithium"] as the compound, how does the normalized bacterial growth read?
Answer: The normalized bacterial growth was 1.38.

— the supplement of paper PMC10398353
